Values quoted from earlier work, collected in patent US6458398B1, “Cold water disinfection of foods” (Eco Pure Food Safety Systems, Inc., priority 1999, dated 2002).
For at least one compound, name, drawing or mass did not settle the structure.

Details: cited from earlier work

O=[O+][O-] [ozone]
oxidation potential: 2.07 millivolts
